{"source": "PubChem BioAssay AID1259424 – University of Nebraska Medical Center | 2018", "screen": "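Find knockdowns that reproduce the expression shifts seen after KSR1 loss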 (primary screen)", "cell system": "human HCT116 colon cancer cells", "knock-down reagent": "siRNA pool against human genes, 50 nM", "measurement": "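Six signature mRNAs by branched-DNA multiplex assay, scaled to two housekeeping genes and non-targeting median, log2; matched to mean KSR1 knockdown profile by Pearson correlation and euclidean distance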", "direction": "mean correlation with KSR1 profile: higher = expression change more like KSR1 knockdown; mean distance from KSR1 profile: higher = expression change less like KSR1 knockdown", "note": "The deposit covers about 14,000 reagents; shown is a random part of them. 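Higher correlation or smaller distance means closer resemblance to KSR1 loss; control wells, including KSR1 knockdowns, recur on many plates.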 Further read-outs or replicates are left out here. Not given: the time to read-out."}
{"gene": "RPS6KL1", "mean correlation with KSR1 profile": 0.195, "mean distance from KSR1 profile": 2.31}
{"gene": "SRCIN1", "mean correlation with KSR1 profile": 0.305, "mean distance from KSR1 profile": 1.86}
{"gene": "HLA-DRA", "mean correlation with KSR1 profile": 0.337, "mean distance from KSR1 profile": 1.76}
{"gene": "ALDH8A1", "mean correlation with KSR1 profile": -0.126, "mean distance from KSR1 profile": 2.12}
{"gene": "ARFGAP3", "mean correlation with KSR1 profile": -0.933, "mean distance from KSR1 profile": 1.43}
{"gene": "CCDC92", "mean correlation with KSR1 profile": 0.662, "mean distance from KSR1 profile": 1.53}
{"gene": "ASPM", "mean correlation with KSR1 profile": -0.569, "mean distance from KSR1 profile": 3.72}
{"gene": "ZNF175", "mean correlation with KSR1 profile": -0.128, "mean distance from KSR1 profile": 1.49}
{"gene": "ZNF630", "mean correlation with KSR1 profile": -0.472, "mean distance from KSR1 profile": 5.15}
{"gene": "AQP8", "mean correlation with KSR1 profile": -0.252, "mean distance from KSR1 profile": 2.27}
{"gene": "CELA3A", "mean correlation with KSR1 profile": -0.194, "mean distance from KSR1 profile": 1.68}
{"gene": "FXYD3", "mean correlation with KSR1 profile": 0.529, "mean distance from KSR1 profile": 1.12}
{"gene": "GSTK1", "mean correlation with KSR1 profile": 0.0568, "mean distance from KSR1 profile": 2.2}
{"gene": "CXCL6", "mean correlation with KSR1 profile": -0.302, "mean distance from KSR1 profile": 2.73}
{"gene": "FAM222A", "mean correlation with KSR1 profile": 0.619, "mean distance from KSR1 profile": 2.26}
{"gene": "KCNB2", "mean correlation with KSR1 profile": -0.846, "mean distance from KSR1 profile": 3.52}
{"gene": "PSME3IP1", "mean correlation with KSR1 profile": 0.607, "mean distance from KSR1 profile": 2.25}
{"gene": "LEFTY2", "mean correlation with KSR1 profile": -0.0801, "mean distance from KSR1 profile": 1.44}
{"gene": "ELAC2", "mean correlation with KSR1 profile": -0.431, "mean distance from KSR1 profile": 4.65}
{"gene": "TRIM26", "mean correlation with KSR1 profile": 0.594, "mean distance from KSR1 profile": 1.06}
{"gene": "GNG12", "mean correlation with KSR1 profile": 0.64, "mean distance from KSR1 profile": 1.91}
{"gene": "NNMT", "mean correlation with KSR1 profile": -0.0746, "mean distance from KSR1 profile": 4.35}
{"gene": "LTBR", "mean correlation with KSR1 profile": -0.14, "mean distance from KSR1 profile": 1.43}
{"gene": "GNB2", "mean correlation with KSR1 profile": -0.349, "mean distance from KSR1 profile": 3.96}
{"gene": "NOL7", "mean correlation with KSR1 profile": -0.458, "mean distance from KSR1 profile": 3.21}
{"gene": "ERCC5", "mean correlation with KSR1 profile": -0.651, "mean distance from KSR1 profile": 1.94}
{"gene": "TAF2", "mean correlation with KSR1 profile": -0.786, "mean distance from KSR1 profile": 2.83}
{"gene": "SIL1", "mean correlation with KSR1 profile": -0.134, "mean distance from KSR1 profile": 1.9}
{"gene": "PITPNM3", "mean correlation with KSR1 profile": 0.203, "mean distance from KSR1 profile": 2.06}
{"gene": "PTCD2", "mean correlation with KSR1 profile": 0.828, "mean distance from KSR1 profile": 0.957}
{"gene": "YKT6", "mean correlation with KSR1 profile": -0.369, "mean distance from KSR1 profile": 2.76}
{"gene": "INSL6", "mean correlation with KSR1 profile": -0.493, "mean distance from KSR1 profile": 1.53}
{"gene": "CHKB", "mean correlation with KSR1 profile": -0.364, "mean distance from KSR1 profile": 3.31}
{"gene": "DMWD", "mean correlation with KSR1 profile": 0.841, "mean distance from KSR1 profile": 1.35}
{"gene": "TMEM33", "mean correlation with KSR1 profile": -0.394, "mean distance from KSR1 profile": 2.96}
{"gene": "HEATR5A", "mean correlation with KSR1 profile": 0.258, "mean distance from KSR1 profile": 1.35}

6 entries from above in another layout.
HLA-DRA
- mean correlation with KSR1 profile: 0.337
- mean distance from KSR1 profile: 1.76

ALDH8A1
- mean correlation with KSR1 profile: -0.126
- mean distance from KSR1 profile: 2.12

ARFGAP3
- mean correlation with KSR1 profile: -0.933
- mean distance from KSR1 profile: 1.43

CCDC92
- mean correlation with KSR1 profile: 0.662
- mean distance from KSR1 profile: 1.53

ASPM
- mean correlation with KSR1 profile: -0.569
- mean distance from KSR1 profile: 3.72

ZNF175
- mean correlation with KSR1 profile: -0.128
- mean distance from KSR1 profile: 1.49
